Data source: PubChem BioAssay AID602196 (INSERM, 2012)
Aim: 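Knock-downs that protect lung cancer cells from cisplatin or sensitise them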. Cells: human A549 lung cancer cells. Knock-down reagent: siRNA pair against human genes. Time to read-out: 48 h transfection before cisplatin; time from cisplatin to read-out not stated. Treatment: cisplatin at a dose killing half of control-siRNA cells; exact dose and duration not given. Measurement: 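Cisplatin cell death as a shift from the 50% death seen with control siRNA; siRNAs toxic or growth-blocking alone scored 0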. Reading the numbers: two-siRNA summed score (-2 to +2): higher = both siRNAs protect from cisplatin killing; -2 means both sensitise. Hit rule: 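siRNAs harmful alone (LDH or WST-1) get 0; others get +1 for less and -1 for more cisplatin killing; genes are active when the two siRNAs give the same sign, summing to ±2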. Calls: active = both siRNAs shift cisplatin killing the same way; inactive = no consistent shift, or siRNA harmful alone.
Shown is an unselected part of about 23,000 deposited reagents. 455 of all reagents (2%) were called active. 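Active includes both protection and sensitisation; some change values fall well beyond the stated -50 to +50 range.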 Entries without a mark were called inactive. Further read-outs or replicates are left out here. No sequences are given here. The record does not give: the amount of reagent.

CYSTM1: two-siRNA summed score (-2 to +2) = -1
LOC148418: two-siRNA summed score (-2 to +2) = 0
LOC387693: two-siRNA summed score (-2 to +2) = 0
PLS3: two-siRNA summed score (-2 to +2) = -1
LRFN2: two-siRNA summed score (-2 to +2) = 0
KRT23: two-siRNA summed score (-2 to +2) = 0
MINAR1: two-siRNA summed score (-2 to +2) = 0
CYB5D2: two-siRNA summed score (-2 to +2) = 0
LOC199800: two-siRNA summed score (-2 to +2) = 0
MTF2: two-siRNA summed score (-2 to +2) = 0
CHD9: two-siRNA summed score (-2 to +2) = 0
ORM1: two-siRNA summed score (-2 to +2) = 0
DRC11: two-siRNA summed score (-2 to +2) = 0
LINC00602: two-siRNA summed score (-2 to +2) = 0
MBP: two-siRNA summed score (-2 to +2) = 0
ICMT-DT: two-siRNA summed score (-2 to +2) = 0
SNF8: two-siRNA summed score (-2 to +2) = 0
CAMLG: two-siRNA summed score (-2 to +2) = 0
LOC441860: two-siRNA summed score (-2 to +2) = -1
ACOT7: two-siRNA summed score (-2 to +2) = 0
CDK5R1: two-siRNA summed score (-2 to +2) = 0

2 entries from above, sorted by “two-siRNA summed score (-2 to +2)”, highest first.
LOC387693: two-siRNA summed score (-2 to +2) = 0
PLS3: two-siRNA summed score (-2 to +2) = -1
